Measured values taken from the supplement of paper PMC10849652.
This is one part of the list.

Sequences of proteins named here, by UniProt entry; tags and fusion partners are left off. A change or cut given only in a name is not applied to a line headed by its entry.
UniProt Q06203, whole entry, looked up: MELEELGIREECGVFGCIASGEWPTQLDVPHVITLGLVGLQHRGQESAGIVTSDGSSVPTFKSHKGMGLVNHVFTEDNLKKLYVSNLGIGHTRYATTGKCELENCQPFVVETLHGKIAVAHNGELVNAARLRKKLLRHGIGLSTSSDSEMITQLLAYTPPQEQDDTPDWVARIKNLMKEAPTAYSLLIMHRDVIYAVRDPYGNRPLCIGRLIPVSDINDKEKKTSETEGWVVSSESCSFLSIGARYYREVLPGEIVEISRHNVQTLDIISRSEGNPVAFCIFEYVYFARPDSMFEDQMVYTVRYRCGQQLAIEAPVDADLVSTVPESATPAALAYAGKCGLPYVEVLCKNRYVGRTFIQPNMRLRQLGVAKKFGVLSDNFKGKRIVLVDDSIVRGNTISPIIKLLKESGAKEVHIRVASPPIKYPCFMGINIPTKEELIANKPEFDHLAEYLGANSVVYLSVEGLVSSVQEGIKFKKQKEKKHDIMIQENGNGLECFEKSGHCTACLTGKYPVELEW
UniProt Q86V59: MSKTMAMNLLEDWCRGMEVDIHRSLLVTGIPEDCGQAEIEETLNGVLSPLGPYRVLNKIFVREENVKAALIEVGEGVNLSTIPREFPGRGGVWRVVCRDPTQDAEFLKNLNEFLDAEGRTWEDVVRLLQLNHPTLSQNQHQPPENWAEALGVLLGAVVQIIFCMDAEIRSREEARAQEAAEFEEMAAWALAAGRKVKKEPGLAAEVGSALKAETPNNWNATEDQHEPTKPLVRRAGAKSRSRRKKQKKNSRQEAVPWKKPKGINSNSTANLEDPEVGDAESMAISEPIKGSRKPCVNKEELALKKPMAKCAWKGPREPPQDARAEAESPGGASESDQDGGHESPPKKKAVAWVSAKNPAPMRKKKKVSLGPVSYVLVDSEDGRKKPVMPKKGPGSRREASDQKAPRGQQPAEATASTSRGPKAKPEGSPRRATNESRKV
UniProt Q8WZA1: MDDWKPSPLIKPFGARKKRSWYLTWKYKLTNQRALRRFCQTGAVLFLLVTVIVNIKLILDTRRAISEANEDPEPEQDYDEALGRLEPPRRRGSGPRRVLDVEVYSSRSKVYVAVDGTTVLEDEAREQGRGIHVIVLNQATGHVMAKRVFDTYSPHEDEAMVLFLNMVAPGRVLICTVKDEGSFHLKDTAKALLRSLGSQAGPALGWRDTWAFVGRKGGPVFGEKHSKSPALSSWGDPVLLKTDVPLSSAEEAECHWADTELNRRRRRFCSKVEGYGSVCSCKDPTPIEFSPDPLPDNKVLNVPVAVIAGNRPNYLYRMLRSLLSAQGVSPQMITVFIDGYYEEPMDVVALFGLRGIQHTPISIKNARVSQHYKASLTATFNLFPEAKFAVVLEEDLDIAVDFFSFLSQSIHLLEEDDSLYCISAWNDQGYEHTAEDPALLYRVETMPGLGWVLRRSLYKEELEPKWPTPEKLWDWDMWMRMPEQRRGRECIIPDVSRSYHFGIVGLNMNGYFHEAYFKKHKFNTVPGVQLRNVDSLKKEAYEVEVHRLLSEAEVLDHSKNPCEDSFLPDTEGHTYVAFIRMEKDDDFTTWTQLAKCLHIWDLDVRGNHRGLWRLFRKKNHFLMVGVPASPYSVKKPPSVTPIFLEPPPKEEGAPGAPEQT
UniProt Q9Y2Y1: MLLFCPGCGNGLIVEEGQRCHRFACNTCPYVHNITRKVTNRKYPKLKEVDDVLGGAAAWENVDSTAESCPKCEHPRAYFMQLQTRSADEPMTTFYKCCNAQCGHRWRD
UniProt Q9BY77: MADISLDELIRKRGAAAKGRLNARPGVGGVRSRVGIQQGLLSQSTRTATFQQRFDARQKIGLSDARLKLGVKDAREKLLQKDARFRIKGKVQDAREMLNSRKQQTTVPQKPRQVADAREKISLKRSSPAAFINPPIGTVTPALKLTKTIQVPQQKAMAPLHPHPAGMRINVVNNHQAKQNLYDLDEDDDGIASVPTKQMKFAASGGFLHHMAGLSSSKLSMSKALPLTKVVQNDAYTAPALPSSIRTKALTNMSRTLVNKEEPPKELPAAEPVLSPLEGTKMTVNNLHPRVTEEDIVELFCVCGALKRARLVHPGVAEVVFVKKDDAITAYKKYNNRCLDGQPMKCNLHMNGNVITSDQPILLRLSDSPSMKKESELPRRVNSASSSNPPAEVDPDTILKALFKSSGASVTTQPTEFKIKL
UniProt Q9P215: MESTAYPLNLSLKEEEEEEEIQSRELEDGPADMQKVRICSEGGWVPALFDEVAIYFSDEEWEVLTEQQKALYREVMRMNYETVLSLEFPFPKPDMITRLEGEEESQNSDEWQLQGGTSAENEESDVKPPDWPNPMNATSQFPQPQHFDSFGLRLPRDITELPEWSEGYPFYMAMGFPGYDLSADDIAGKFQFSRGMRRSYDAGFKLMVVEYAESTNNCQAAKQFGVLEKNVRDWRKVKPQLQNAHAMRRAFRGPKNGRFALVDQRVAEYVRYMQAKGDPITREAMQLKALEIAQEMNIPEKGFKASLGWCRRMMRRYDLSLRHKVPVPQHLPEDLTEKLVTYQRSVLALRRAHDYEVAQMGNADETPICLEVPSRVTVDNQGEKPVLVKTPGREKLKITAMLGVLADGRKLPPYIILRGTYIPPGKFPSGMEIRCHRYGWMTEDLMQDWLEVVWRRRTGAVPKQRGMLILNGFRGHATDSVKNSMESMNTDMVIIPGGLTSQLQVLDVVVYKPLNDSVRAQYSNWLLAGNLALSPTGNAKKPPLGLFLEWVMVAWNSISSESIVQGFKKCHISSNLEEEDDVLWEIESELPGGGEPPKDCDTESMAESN
UniProt Q96AD5: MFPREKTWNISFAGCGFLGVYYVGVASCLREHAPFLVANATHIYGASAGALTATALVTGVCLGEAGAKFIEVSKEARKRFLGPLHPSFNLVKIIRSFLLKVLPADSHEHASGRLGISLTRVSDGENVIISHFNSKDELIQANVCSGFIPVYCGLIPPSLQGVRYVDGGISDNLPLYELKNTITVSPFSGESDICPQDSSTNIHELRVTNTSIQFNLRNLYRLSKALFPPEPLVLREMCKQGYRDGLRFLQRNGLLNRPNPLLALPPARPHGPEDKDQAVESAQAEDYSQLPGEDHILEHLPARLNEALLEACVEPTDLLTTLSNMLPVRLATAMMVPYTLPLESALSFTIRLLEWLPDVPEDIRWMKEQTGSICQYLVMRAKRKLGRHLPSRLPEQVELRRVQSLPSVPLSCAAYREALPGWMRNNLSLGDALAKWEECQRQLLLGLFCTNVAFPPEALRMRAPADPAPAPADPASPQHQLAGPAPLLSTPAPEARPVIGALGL
UniProt Q8TCS8: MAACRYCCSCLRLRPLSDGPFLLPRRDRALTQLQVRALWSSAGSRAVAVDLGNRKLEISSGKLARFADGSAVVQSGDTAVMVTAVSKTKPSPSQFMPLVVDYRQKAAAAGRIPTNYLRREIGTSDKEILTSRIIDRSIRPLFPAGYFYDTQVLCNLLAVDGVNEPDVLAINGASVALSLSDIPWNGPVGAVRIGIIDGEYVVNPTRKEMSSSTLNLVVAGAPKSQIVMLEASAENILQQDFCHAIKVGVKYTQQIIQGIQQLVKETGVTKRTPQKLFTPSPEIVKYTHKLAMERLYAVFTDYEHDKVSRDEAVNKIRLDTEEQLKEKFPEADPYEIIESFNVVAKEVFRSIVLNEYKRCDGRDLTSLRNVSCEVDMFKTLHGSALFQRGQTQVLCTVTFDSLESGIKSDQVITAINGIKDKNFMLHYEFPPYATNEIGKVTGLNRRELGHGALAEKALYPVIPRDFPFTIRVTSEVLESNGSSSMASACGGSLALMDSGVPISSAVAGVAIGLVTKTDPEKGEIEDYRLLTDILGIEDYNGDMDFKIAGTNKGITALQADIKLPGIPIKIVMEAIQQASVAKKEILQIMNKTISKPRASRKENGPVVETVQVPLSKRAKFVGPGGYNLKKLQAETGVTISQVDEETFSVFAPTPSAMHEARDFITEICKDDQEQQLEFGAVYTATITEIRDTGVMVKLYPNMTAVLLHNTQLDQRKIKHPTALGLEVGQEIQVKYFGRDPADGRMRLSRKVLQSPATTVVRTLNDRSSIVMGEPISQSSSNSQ
UniProt P51805: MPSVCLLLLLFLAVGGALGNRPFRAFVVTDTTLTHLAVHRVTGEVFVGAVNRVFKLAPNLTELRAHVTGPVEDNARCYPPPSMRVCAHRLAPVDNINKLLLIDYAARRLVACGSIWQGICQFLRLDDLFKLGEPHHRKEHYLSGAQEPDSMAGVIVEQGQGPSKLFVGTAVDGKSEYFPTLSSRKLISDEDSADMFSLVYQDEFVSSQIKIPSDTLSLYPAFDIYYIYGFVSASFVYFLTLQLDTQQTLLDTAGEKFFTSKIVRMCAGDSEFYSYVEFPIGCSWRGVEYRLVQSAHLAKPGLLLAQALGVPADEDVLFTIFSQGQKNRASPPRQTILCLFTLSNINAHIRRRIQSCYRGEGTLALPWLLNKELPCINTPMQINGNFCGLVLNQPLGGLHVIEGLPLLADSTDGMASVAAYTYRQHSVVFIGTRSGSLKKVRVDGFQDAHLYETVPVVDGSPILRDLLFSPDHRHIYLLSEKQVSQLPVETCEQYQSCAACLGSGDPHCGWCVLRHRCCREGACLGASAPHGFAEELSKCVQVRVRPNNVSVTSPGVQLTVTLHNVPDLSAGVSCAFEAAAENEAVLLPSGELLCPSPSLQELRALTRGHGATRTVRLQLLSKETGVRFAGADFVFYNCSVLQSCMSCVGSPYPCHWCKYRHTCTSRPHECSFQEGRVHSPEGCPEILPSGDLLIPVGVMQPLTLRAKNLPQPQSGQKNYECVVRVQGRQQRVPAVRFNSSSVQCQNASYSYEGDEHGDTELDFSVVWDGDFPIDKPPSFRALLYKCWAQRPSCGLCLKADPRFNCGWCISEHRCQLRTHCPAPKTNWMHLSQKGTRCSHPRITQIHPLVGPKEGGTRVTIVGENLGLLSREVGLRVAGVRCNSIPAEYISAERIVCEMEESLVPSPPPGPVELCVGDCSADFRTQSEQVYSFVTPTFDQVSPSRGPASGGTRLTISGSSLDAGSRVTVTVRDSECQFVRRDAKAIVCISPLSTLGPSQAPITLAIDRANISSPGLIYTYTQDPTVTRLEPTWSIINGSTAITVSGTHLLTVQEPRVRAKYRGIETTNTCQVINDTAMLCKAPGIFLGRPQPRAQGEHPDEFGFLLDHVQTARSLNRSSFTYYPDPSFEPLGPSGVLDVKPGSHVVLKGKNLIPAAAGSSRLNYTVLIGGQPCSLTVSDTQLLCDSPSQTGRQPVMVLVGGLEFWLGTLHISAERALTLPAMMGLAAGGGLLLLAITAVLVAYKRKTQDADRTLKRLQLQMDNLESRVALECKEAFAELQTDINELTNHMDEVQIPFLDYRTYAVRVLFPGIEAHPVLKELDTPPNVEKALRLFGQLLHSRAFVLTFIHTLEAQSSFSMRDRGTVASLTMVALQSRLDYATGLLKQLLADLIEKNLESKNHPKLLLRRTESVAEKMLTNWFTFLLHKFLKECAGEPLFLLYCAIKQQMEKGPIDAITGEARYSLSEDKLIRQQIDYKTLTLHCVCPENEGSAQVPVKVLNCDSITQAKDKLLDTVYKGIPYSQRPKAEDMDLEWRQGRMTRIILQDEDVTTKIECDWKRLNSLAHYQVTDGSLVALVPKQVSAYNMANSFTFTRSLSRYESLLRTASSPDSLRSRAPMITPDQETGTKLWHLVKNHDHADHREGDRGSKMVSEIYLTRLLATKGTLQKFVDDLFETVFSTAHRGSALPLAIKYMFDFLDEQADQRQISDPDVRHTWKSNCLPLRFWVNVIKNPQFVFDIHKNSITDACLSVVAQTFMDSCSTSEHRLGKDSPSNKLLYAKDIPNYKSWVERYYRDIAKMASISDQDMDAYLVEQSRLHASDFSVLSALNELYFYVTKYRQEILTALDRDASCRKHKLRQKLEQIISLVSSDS
UniProt Q8NBL1: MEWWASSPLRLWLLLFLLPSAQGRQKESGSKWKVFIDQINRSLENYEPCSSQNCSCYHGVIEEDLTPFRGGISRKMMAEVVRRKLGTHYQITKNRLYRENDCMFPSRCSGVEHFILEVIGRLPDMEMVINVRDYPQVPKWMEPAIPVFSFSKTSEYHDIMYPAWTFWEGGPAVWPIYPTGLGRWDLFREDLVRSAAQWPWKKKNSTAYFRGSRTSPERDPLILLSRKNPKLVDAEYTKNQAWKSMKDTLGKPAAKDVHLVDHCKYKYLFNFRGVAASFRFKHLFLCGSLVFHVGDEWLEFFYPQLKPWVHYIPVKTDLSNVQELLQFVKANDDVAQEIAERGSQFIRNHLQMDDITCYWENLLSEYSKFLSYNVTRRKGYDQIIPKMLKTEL

What was measured:
Assay in all cases: log2 fold change, soluble protein after heating vs DMSO (PISA); higher = thermal stabilisation; K562 lysate, 10 uM; active = over 0.2 and 3.5 SD of the protein, either way, in both replicates (recomputed)
ibrutinib = compound: C=CC(=O)N1CCC[C@@H](n2nc(-c3ccc(Oc4ccccc4)cc3)c3c(N)ncnc32)C1 [ibrutinib]
In short: (§1)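 Thermal stability, expressed as log-two fold change relative to solvent controls, is given from duplicates. Crude K562 extract in PBS pH 7.4 with 1 mM MgCl2, at 1 mg/mL protein, was treated with 10 μM compound for 30 min and heated in aliquots for 3 min across 48°C-58°C. After pooling, adjustment to 0.5% NP-40 at 4°C and centrifugation at 21,000xg for 90 min, supernatant protein was measured by TMTpro 16plex LC-MS/MS with channel sums equalised.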

[1] = compound: CC(=O)c1cnc2ccc(-c3cc(Cl)c(O)c(Cl)c3)nc2c1N[C@H]1CC[C@H](CN(C)C)CC1
In short: as §1

ralimetinib = compound: CC(C)(C)Cn1c(N)nc2ccc(-c3[nH]c(C(C)(C)C)nc3-c3ccc(F)cc3)nc21 [ralimetinib]
In short: as §1

[2] = compound: CC(C)(O)CC(=O)NCCn1ccc2ncnc(Nc3ccc(Oc4cccc(C(F)(F)F)c4)c(Cl)c3)c21
In short: as §1

[3] = compound: CC(C)C1=C2N=C(C=C(N2N=C1)NCC3=CC=CC=C3)NCCCCCCN
In short: as §1

[4] = compound: CC1=C(C(CC(=O)N1)C2=CC=C(C=C2)C(F)(F)F)C(=O)NC3=C(C=C4C(=C3)C=NN4)F
In short: as §1

[5] = compound: CC1=C(C2=C(C=C1)C(=O)C3=CC=CC=C3N2CCCN)C
In short: as §1

[6] = compound: CC1=C(C=C(C=C1)NC(=O)C2=CC(=CC=C2)C(C)(C)C#N)NC3=CC4=C(C=C3)N=CN(C4=O)C
In short: as §1

[7] = compound: CC1=C(C=C(C=C1)NC(=O)C2=CC(=CC=C2)N(C)C)NC(=O)C3=CC=C(C=C3)O
In short: as §1

[8] = compound: CC1=CC=C(C=C1)SC2=C3C=C(SC3=CN=C2)C(=O)N
In short: as §1

vemurafenib = compound: CCCS(=O)(=O)Nc1ccc(F)c(C(=O)c2c[nH]c3ncc(-c4ccc(Cl)cc4)cc23)c1F [vemurafenib]
In short: as §1

[9] = compound: CCCS(=O)(=O)Nc1ccc(F)c(C(=O)c2c[nH]c3ncc(Cl)cc23)c1F
In short: as §1

barasertib = compound: CCN(CCCOc1ccc2c(Nc3cc(CC(=O)Nc4cccc(F)c4)[nH]n3)ncnc2c1)CCOP(=O)(O)O [barasertib]
In short: as §1

[10] = compound: CC[C@@H]1C(=O)N(C)c2cnc(Nc3ccc(C(=O)NC4CCN(C)CC4)cc3OC)nc2N1C1CCCC1
In short: as §1

volasertib = compound: CC[C@@H]1C(=O)N(C)c2cnc(Nc3ccc(C(=O)N[C@H]4CC[C@H](N5CCN(CC6CC6)CC5)CC4)cc3OC)nc2N1C(C)C [volasertib]
In short: as §1

[11] = compound: CCn1c(C(=O)N(C2CC2)C2CC2)cc2c3c(ncn3C)c(Nc3cc(C)n(C)n3)nc21
In short: as §1

[12] = compound: CCn1cc(-c2ccnc3[nH]c(-c4cccc(CN(C)C)c4)cc23)c(-c2ccc(NC(=O)N(C)C)cc2)n1
In short: as §1

[13] = compound: CN1CCC(CNc2ccc3ncc(-c4cccc(OC(F)(F)F)c4)n3n2)CC1
In short: as §1

saracatinib = compound: CN1CCN(CCOc2cc(OC3CCOCC3)c3c(Nc4c(Cl)ccc5c4OCO5)ncnc3c2)CC1 [saracatinib]
In short: as §1

sotrastaurin = compound: CN1CCN(c2nc(C3=C(c4c[nH]c5ccccc45)C(=O)NC3=O)c3ccccc3n2)CC1 [sotrastaurin]
In short: as §1

PPAT (UniProt Q06203)
log2 fold change (ibrutinib): inactive: 0.028
log2 fold change [1]: inactive: -0.003
log2 fold change (ralimetinib): inactive: 0.02
log2 fold change [2]: inactive: 0.021
log2 fold change [3]: inactive: -0.014
log2 fold change [4]: inactive: -0.043
log2 fold change [5]: inactive: -0.005
log2 fold change [6]: inactive: 0.006
log2 fold change [7]: inactive: -0.026
log2 fold change [8]: inactive: -0.007
log2 fold change (vemurafenib): inactive: -0.014
log2 fold change [9]: inactive: 0.032
log2 fold change (barasertib): inactive: -0.009
log2 fold change [10]: inactive: -0.006
log2 fold change (volasertib): inactive: 0.002
log2 fold change [11]: inactive: 0.007
log2 fold change [12]: inactive: 0.193
log2 fold change [13]: inactive: -0.04
log2 fold change (saracatinib): inactive: -0.038
log2 fold change (sotrastaurin): inactive: -0.018

PNMA8A (UniProt Q86V59)
log2 fold change (ibrutinib): inactive: 0.033
log2 fold change [1]: inactive: -0.061
log2 fold change (ralimetinib): inactive: 0.147
log2 fold change [2]: inactive: -0.135
log2 fold change [3]: inactive: -0.123
log2 fold change [4]: inactive: 0.033
log2 fold change [5]: inactive: -0.078
log2 fold change [7]: inactive: 0.091
log2 fold change [8]: inactive: -0.021
log2 fold change [9]: inactive: 0.223
log2 fold change (barasertib): inactive: 0.052
log2 fold change [10]: inactive: 0.102
log2 fold change (volasertib): inactive: 0.184
log2 fold change [11]: inactive: -0.003
log2 fold change (saracatinib): inactive: 0.004

POMGNT1 isoform 2 (UniProt Q8WZA1)
log2 fold change (ibrutinib): inactive: 0.085
log2 fold change [1]: inactive: -0.071
log2 fold change (ralimetinib): inactive: -0.336
log2 fold change [2]: inactive: -0.093
log2 fold change [3]: inactive: 0.021
log2 fold change [4]: inactive: 0.019
log2 fold change [5]: inactive: 0.102
log2 fold change [6]: inactive: -0.02
log2 fold change [7]: inactive: 0.033
log2 fold change [8]: inactive: 0.022
log2 fold change (vemurafenib): inactive: 0.059
log2 fold change [9]: inactive: 0.029
log2 fold change (barasertib): inactive: -0.101
log2 fold change [10]: inactive: -0.142
log2 fold change (volasertib): inactive: 0.044
log2 fold change [11]: inactive: -0.065
log2 fold change [12]: inactive: -0.076
log2 fold change [13]: inactive: 0.024
log2 fold change (saracatinib): inactive: 0.117
log2 fold change (sotrastaurin): inactive: 0.032

POLR2E (UniProt P19388)
log2 fold change (ibrutinib): inactive: -0.03
log2 fold change [1]: inactive: -0.007
log2 fold change (ralimetinib): inactive: -0.045
log2 fold change [2]: inactive: -0.033
log2 fold change [3]: inactive: 0.032
log2 fold change [4]: inactive: 0.008
log2 fold change [5]: inactive: -0.013
log2 fold change [6]: inactive: -0.003
log2 fold change [7]: inactive: 0.001
log2 fold change [8]: inactive: -0.006
log2 fold change (vemurafenib): inactive: 0.003
log2 fold change [9]: inactive: 0.036
log2 fold change (barasertib): inactive: -0.021
log2 fold change [10]: inactive: -0.014
log2 fold change (volasertib): inactive: -0.005
log2 fold change [11]: inactive: 0.039
log2 fold change [12]: inactive: -0.04
log2 fold change [13]: inactive: -0.026
log2 fold change (saracatinib): inactive: 0.004
log2 fold change (sotrastaurin): inactive: -0.012

POLR3K (UniProt Q9Y2Y1)
log2 fold change (ibrutinib): inactive: 0.039
log2 fold change [1]: inactive: 0.044
log2 fold change (ralimetinib): inactive: -0.011
log2 fold change [2]: inactive: 0
log2 fold change [3]: inactive: 0.02
log2 fold change [4]: inactive: -0.003
log2 fold change [5]: inactive: -0.048
log2 fold change [6]: inactive: -0.003
log2 fold change [7]: inactive: 0.005
log2 fold change [8]: inactive: -0.017
log2 fold change (vemurafenib): inactive: 0.011
log2 fold change [9]: inactive: 0.004
log2 fold change (barasertib): inactive: 0.045
log2 fold change [10]: inactive: 0.048
log2 fold change (volasertib): inactive: -0.01
log2 fold change [11]: inactive: 0.001
log2 fold change [12]: inactive: -0.059
log2 fold change [13]: inactive: 0.066
log2 fold change (saracatinib): inactive: -0.152
log2 fold change (sotrastaurin): inactive: -0.004

POLDIP3 (UniProt Q9BY77)
log2 fold change (ibrutinib): inactive: 0.055
log2 fold change [1]: inactive: -0.014
log2 fold change (ralimetinib): inactive: 0.02
log2 fold change [2]: inactive: 0.042
log2 fold change [3]: inactive: -0.028
log2 fold change [4]: inactive: 0.061
log2 fold change [5]: inactive: -0.095
log2 fold change [6]: inactive: 0.075
log2 fold change [7]: inactive: -0.034
log2 fold change [8]: inactive: 0.011
log2 fold change (vemurafenib): inactive: -0.024
log2 fold change [9]: inactive: 0.008
log2 fold change (barasertib): inactive: 0.035
log2 fold change (volasertib): inactive: -0.011
log2 fold change [11]: inactive: -0.026
log2 fold change [12]: inactive: -0.125
log2 fold change [13]: inactive: 0.108
log2 fold change (saracatinib): inactive: 0.011
log2 fold change (sotrastaurin): inactive: -0.025

POGK (UniProt Q9P215)
log2 fold change (ibrutinib): inactive: 0.051
log2 fold change [1]: inactive: -0.012
log2 fold change (ralimetinib): inactive: 0.04
log2 fold change [2]: inactive: -0.026
log2 fold change [3]: inactive: -0.012
log2 fold change [4]: inactive: 0.018
log2 fold change [5]: inactive: 0.04
log2 fold change [6]: inactive: 0.01
log2 fold change [7]: inactive: -0.047
log2 fold change [8]: inactive: 0.027
log2 fold change (vemurafenib): inactive: -0.035
log2 fold change [9]: inactive: 0.114
log2 fold change (barasertib): inactive: 0.011
log2 fold change [10]: inactive: -0.005
log2 fold change (volasertib): inactive: 0.033
log2 fold change [11]: inactive: -0.027
log2 fold change [12]: active: -0.397
log2 fold change [13]: inactive: 0.034
log2 fold change (saracatinib): inactive: 0.017
log2 fold change (sotrastaurin): inactive: 0.013

PNPLA2 (UniProt Q96AD5)
log2 fold change (ibrutinib): inactive: 0.087
log2 fold change [1]: inactive: -0.007
log2 fold change (ralimetinib): inactive: 0.007
log2 fold change [2]: inactive: -0.1
log2 fold change [3]: inactive: 0.041
log2 fold change [4]: inactive: -0.046
log2 fold change [5]: inactive: 0.034
log2 fold change [6]: inactive: 0.106
log2 fold change [7]: inactive: 0.023
log2 fold change [8]: inactive: -0.012
log2 fold change (vemurafenib): inactive: 0.052
log2 fold change [9]: inactive: 0.017
log2 fold change (barasertib): inactive: 0.039
log2 fold change [10]: inactive: 0.009
log2 fold change (volasertib): inactive: 0
log2 fold change [11]: inactive: 0.022
log2 fold change [12]: inactive: 0.001
log2 fold change [13]: inactive: 0.01
log2 fold change (saracatinib): inactive: -0.059
log2 fold change (sotrastaurin): inactive: -0.118

PNPT1 (UniProt Q8TCS8)
log2 fold change (ibrutinib): inactive: 0.017
log2 fold change [1]: inactive: 0.005
log2 fold change (ralimetinib): inactive: -0.004
log2 fold change [2]: inactive: -0.017
log2 fold change [3]: inactive: -0.02
log2 fold change [4]: inactive: -0.015
log2 fold change [5]: inactive: 0.011
log2 fold change [6]: inactive: 0.038
log2 fold change [7]: inactive: -0.007
log2 fold change [8]: inactive: -0.012
log2 fold change (vemurafenib): inactive: 0.008
log2 fold change [9]: inactive: 0.021
log2 fold change (barasertib): inactive: 0.048
log2 fold change [10]: inactive: 0.008
log2 fold change (volasertib): inactive: -0.001
log2 fold change [11]: inactive: -0.036
log2 fold change [12]: inactive: -0.028
log2 fold change [13]: inactive: 0.01
log2 fold change (saracatinib): inactive: 0.002
log2 fold change (sotrastaurin): inactive: 0.01

PLXNA3 (UniProt P51805)
log2 fold change (ibrutinib): inactive: -0.03
log2 fold change [1]: inactive: 0.004
log2 fold change (ralimetinib): inactive: -0.042
log2 fold change [2]: inactive: -0.13
log2 fold change [3]: inactive: -0.017
log2 fold change [6]: inactive: 0.114
log2 fold change [7]: inactive: 0.031
log2 fold change [8]: inactive: -0.129
log2 fold change (vemurafenib): inactive: -0.046
log2 fold change [9]: inactive: 0.103
log2 fold change (barasertib): inactive: 0.296
log2 fold change [10]: inactive: -0.061
log2 fold change (volasertib): inactive: -0.117
log2 fold change [11]: inactive: 0.01
log2 fold change [12]: inactive: 0.083
log2 fold change [13]: inactive: 0.16
log2 fold change (sotrastaurin): inactive: -0.06

POGLUT1 (UniProt Q8NBL1)
log2 fold change (ibrutinib): inactive: 0.002
log2 fold change [1]: inactive: 0.005
log2 fold change (ralimetinib): inactive: 0.042
log2 fold change [2]: inactive: 0.028
log2 fold change [3]: inactive: -0.023
log2 fold change [4]: inactive: 0.008
log2 fold change [5]: inactive: 0.05
log2 fold change [6]: inactive: -0.026
log2 fold change [7]: inactive: -0.001
log2 fold change [8]: inactive: 0.001
log2 fold change (vemurafenib): inactive: 0.008
log2 fold change [9]: inactive: -0.018
log2 fold change (barasertib): inactive: -0.001
log2 fold change [10]: inactive: -0.02
log2 fold change (volasertib): inactive: -0.015
log2 fold change [11]: inactive: 0.024
log2 fold change [12]: inactive: 0.01
log2 fold change [13]: inactive: -0.023
log2 fold change (saracatinib): inactive: -0.007
log2 fold change (sotrastaurin): inactive: 0.041
